Experimental data: US20140322241A1
Results are given in words; binding and its absence hold for the method and conditions named. In cells and extracts the contact can be indirect. Some binding calls cover weakened binding; strength is not graded here.

Amino acid sequences for entries named in this document (tags omitted). Residues count along the entry.
UniProt P04114, residues 28-1569: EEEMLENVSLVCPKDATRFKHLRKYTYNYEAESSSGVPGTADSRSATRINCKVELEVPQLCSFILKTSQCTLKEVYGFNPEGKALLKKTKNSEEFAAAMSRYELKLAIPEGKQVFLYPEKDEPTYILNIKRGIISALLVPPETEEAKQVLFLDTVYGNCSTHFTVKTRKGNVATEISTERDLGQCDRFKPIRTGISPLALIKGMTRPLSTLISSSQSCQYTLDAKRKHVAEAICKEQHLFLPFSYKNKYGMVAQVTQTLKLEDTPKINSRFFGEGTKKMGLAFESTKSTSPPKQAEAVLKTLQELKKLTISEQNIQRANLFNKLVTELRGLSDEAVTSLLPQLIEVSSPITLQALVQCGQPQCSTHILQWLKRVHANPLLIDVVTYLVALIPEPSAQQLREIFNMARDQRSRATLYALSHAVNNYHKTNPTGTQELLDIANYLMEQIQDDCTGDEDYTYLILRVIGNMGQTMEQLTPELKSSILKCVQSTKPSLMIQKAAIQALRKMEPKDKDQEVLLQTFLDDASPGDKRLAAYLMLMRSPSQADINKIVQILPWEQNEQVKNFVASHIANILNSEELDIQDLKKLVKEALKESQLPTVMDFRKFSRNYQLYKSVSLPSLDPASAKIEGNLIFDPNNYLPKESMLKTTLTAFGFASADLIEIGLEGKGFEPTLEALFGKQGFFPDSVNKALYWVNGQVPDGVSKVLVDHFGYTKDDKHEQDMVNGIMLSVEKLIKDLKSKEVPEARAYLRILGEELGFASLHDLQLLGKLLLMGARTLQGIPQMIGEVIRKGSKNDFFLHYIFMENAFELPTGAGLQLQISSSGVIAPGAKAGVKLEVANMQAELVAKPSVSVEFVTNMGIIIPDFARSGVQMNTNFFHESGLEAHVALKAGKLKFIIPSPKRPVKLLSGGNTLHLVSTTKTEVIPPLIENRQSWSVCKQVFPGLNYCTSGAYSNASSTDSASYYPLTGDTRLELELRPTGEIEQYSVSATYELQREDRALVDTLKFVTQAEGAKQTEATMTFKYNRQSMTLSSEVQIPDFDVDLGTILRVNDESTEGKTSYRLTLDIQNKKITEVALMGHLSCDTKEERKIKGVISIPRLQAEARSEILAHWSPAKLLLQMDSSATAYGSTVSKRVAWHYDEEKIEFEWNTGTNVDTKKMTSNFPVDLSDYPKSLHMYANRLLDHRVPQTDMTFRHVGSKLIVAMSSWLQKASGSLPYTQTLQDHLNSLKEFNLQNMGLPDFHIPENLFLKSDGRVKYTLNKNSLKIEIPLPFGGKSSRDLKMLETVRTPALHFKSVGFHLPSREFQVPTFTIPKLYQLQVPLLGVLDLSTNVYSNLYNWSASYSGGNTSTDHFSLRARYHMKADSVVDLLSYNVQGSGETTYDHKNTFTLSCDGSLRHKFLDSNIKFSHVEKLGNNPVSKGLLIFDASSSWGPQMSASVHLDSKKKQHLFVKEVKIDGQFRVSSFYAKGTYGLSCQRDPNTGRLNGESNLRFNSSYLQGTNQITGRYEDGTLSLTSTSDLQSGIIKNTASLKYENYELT

Biological target: ApoB34 (human apolipoprotein B truncated form) (human) (UniProt P04114)
Experiment: co-immunoprecipitation with anti-apoB antibody from lysate of 35S-labelled HEK293 cells co-transfected with ApoB34 and Huh7MTP; SDS-PAGE and phosphorimager

B1: Huh7MTP (human microsomal triglyceride transfer protein cloned from Huh7 hepatoma cell RNA) (protein, UniProt P55157 19-894, looked up)
chain: VKGHTTGLSLNNDRLYKLTYSTEVLLDRGKGKLQDSVGYRISSNVDVALLWRNPDGDDDQLIQITMKDVNVENVNQQRGEKSIFKGKSPSKIMGKENLEALQRPTLLHLIHGKVKEFYSYQNEAVAIENIKRGLASLFQTQLSSGTTNEVDISGNCKVTYQAHQDKVIKIKALDSCKIARSGFTTPNQVLGVSSKATSVTTYKIEDSFVIAVLAEETHNFGLNFLQTIKGKIVSKQKLELKTTEAGPRLMSGKQAAAIIKAVDSKYTAIPIVGQVFQSHCKGCPSLSELWRSTRKYLQPDNLSKAEAVRNFLAFIQHLRTAKKEEILQILKMENKEVLPQLVDAVTSAQTSDSLEAILDFLDFKSDSSIILQERFLYACGFASHPNEELLRALISKFKGSIGSSDIRETVMIITGTLVRKLCQNEGCKLKAVVEAKKLILGGLEKAEKKEDTRMYLLALKNALLPEGIPSLLKYAEAGEGPISHLATTALQRYDLPFITDEVKKTLNRIYHQNRKVHEKTVRTAAAAIILNNNPSYMDVKNILLSIGELPQEMNKYMLAIVQDILRFEMPASKIVRRVLKEMVAHNYDRFSRSGSSSAYTGYIERSPRSASTYSLDILYSGSGILRRSNLNIFQYIGKAGLHGSQVVIEAQGLEALIAATPDEGEENLDSYAGMSAILFDVQLRPVTFFNGYSDLMSKMLSASGDPISVVKGLILLIDHSQELQLQSGLKANIEVQGGLAIDISGAMEFSLWYRESKTRVKNRVTVVITTDITVDSSFVKAGLETSTETEAGLEFISTVQFSQYPFLVCMQMDKDEAPFRQFEKKYERLSTGRGYVSQKRKESVLAGCEFPLHQENSEMCKVVFAPQPDSTSSGWF
binding: binds
